Source: publication PMC12040169 (PLOS Biology, 2025)
This is one part of the list.

tested on: T1, CTL2-GFP (C. trachomatis L2/434/Bu, GFP-expressing); set-up: species or system HeLa; Intracellular C. trachomatis growth in HeLa cells, bulk GFP fluorescence relative to DMSO; conditions: bulk GFP, single well; 28.5 h, 10 µM; inhibitor
T1 construct: L2/434/Bu, GFP-expressing

Row | SMILES | % of control remaining [%]
1 | COc1ccc(S(=O)(=O)N(CC(=O)Nc2ccc(F)cc2)c2ccccc2)cc1 [CBK264141] | 131.164
2 | COc1ccccc1OCCO [CBK000949] | 107.053
3 | O=C(CN1CCN(c2ccc(C(F)(F)F)cn2)CC1)c1ccc2c(c1)OCCO2 [CBK074700] | 66.4517
4 | O=C(COc1ccc2ccccc2c1Br)Nc1ccc(S(=O)(=O)N2CCCC2)cc1 [CBK264135] | 100
5 | Cc1ncc(CO)c(/C=N/N=C/c2ccc(O)c(O)c2)c1O [CBK265075] | 96.8965
6 | COc1cc(Cn2c(-c3ccc(O)c(OC)c3)nc3ccccc32)ccc1O [CBK291138] | 137.117
7 | COc1ccc(CN2CCCn3c4c(c5cc(C)ccc53)CCCC42)cc1OCc1ccccc1 (centres unmarked) [CBK262879] | 102.591
8 | Cn1ccnc1CN1CCN(Cc2nccn2C)CC1 [CBK266206C] | 111.349
9 | O=C(O)Cc1csc(NC(=O)c2ccc(N3CCCCC3)c([N+](=O)[O-])c2)n1 [CBK296081] | 139.897
10 | COc1ccc(-c2cnc(N)c(NCC(C)(C)CO)n2)c(OC)c1OC [CBK063542] | 144.999
11 | c1cncc(COc2nccnc2N2CCN(CCN3CCOCC3)CC2)c1 [CBK083141] | 117.415
12 | CCOc1ncccc1C(=O)NCc1ccc(NC(N)=O)cc1 [CBK279382] | 83.7686
13 | O=C(O)c1ccc(COc2ccc(/C=C3\SC(=S)N(Cc4cccnc4)C3=O)cc2)cc1 [CBK264637] | 100
14 | CN1C2CCC1CC(OC(=O)CN1CCCCC1)C2 (centres unmarked) [CBK278166C] | 104.315
15 | Cc1nccn1CC1(O)CCN(Cc2cn(C)c3ccccc23)CC1 [CBK285017] | 140.982
16 | COc1ccc(CC(=O)Nc2ccc(S(N)(=O)=O)cc2)cc1OC [CBK263429] | 123.689
17 | Cc1cc(/C=C/C2=CCN(C)CC2)c(C)n1C1CC1 [CBK283858] | 110.137
18 | COc1ccc(-c2nc(NC(=O)c3ccncc3)cnc2-c2ccc(F)c(Cl)c2)cc1 [CBK036663] | 103.563
19 | Nc1ncc([C@H]2C[C@@H](O)[C@@H](CO)O2)c(=O)[nH]1 [CBK201246] | 144.953
20 | COc1ccc(C(CCN)c2ccccc2OC)cc1 (centres unmarked) [CBK266125] | 92.1584
21 | CCCNCCc1ccc(NC(=O)NCCc2ccccc2)cc1 [CBK173873T] | 172.521
22 | CCCN(CCC)C(=O)c1ccc(-n2nc(C(=O)OCC)c(Br)c2C)cc1 [CBK114363] | 102.355
23 | CCCCOc1ccc(NC(=O)NC(=O)C2CCN(CCc3ccc(Br)cc3)CC2)cc1 [CBK035096] | 100
24 | COc1cccc(NC(=O)N[C@H]2C[C@@H](c3nc(-c4ccccn4)no3)N(C)C2)c1 [CBK288853] | 98.7362
25 | c1ccc(Oc2cccc(CN3CCOCC3)c2)cc1 [CBK261870] | 112.477

Ordered by SMILES length (descending): some entries from above
Row | SMILES | % of control remaining [%]
18 | COc1ccc(-c2nc(NC(=O)c3ccncc3)cnc2-c2ccc(F)c(Cl)c2)cc1 [CBK036663] | 103.563
22 | CCCN(CCC)C(=O)c1ccc(-n2nc(C(=O)OCC)c(Br)c2C)cc1 [CBK114363] | 102.355
8 | Cn1ccnc1CN1CCN(Cc2nccn2C)CC1 [CBK266206C] | 111.349
2 | COc1ccccc1OCCO [CBK000949] | 107.053

Next part

Row | SMILES | % of control remaining [%]
26 | CN1C(=O)COc2ccccc2C/C=C/C[C@@H]2[C@H]1CCCN2C(=O)Cn1ccc(=O)[nH]c1=O [CBK292093] | 129.693
27 | CCCc1cc(O)n(-c2nc3ccccc3[nH]2)n1 [CBK270269] | 120.449
28 | CCc1ccc(OCC(=O)NC(=S)Nc2cccc3nsnc23)cc1 [CBK267173] | 133.617
29 | Cn1c(NC(=O)CSc2nnc(Cc3cccc4ccccc34)o2)cc(=O)n(C)c1=O [CBK266055] | 105.752
30 | O=C(CSc1ccc(Cl)cc1)Nc1cc(Cl)ccc1C(=O)O [CBK264217] | 118.322
31 | O=C(O)CCC(=O)N1N=C(c2c(-c3ccccc3)c3cc(Cl)ccc3[nH]c2=O)CC1c1ccccn1 (centres unmarked) [CBK296106] | 129.011
32 | CSc1nc(N)nc(SC(C(=O)O)c2ccccc2)c1C#N (centres unmarked) [CBK267461] | 127.419
33 | O=C1CC(c2ccc(Cl)cc2)CC(=O)C1=CNCCN1CCN(C(=O)Nc2ccccc2)CC1 (centres unmarked) [CBK263671] | 109.384
34 | O=C(N/N=C\c1cccc(OC(=O)c2cccs2)c1)c1ccc([N+](=O)[O-])cc1 [CBK262289] | 100
35 | Cn1ccnc1C1(O)CCN(C(=O)NC2CCCCC2)CC1 [CBK282275] | 116.086
36 | COc1cc(C)c(C)cc1S(=O)(=O)N1[C@@H](c2ccccc2F)C[C@@H]2NC(=O)CCC[C@H]21 [CBK286012] | 103.545
37 | COCCNC(=O)c1cnn2c(C)c(Cc3ccccc3C)c(C)nc12 [CBK160253] | 107.096
38 | O=C(Nc1ccccc1)c1ccc(F)cc1-n1cnnn1 [CBK287903] | 116.015
39 | O=C1CCC(=O)N1CCOc1nccnc1OC1CCNCC1 [CBK075084T] | 118.77
40 | Nc1cc(Cl)cc2[nH]c(=O)c3cc(Cl)ccc3c12 [CBK017144] | 100
41 | CCOC(=O)Nc1ccc2c(c1)N(C(=O)CCN1CCOCC1)c1ccccc1CC2 [CBK261291C] | 100
42 | COc1ccc(C(=O)Nc2nc(OCC(F)(F)F)cnc2/C=C\c2ccccc2)c(OC)c1 [CBK145367] | 122.691
43 | O=C(N/N=C/c1ccc(Br)s1)c1cccc([N+](=O)[O-])c1 [CBK261354] | 83.742
44 | COc1ccc(/C=C(\NC(C)=O)C(=O)N2CCNCC2)cc1 [CBK077408] | 104.835
45 | CCc1c(C)nc2ccc(Br)cc2c1SCCC(=O)O [CBK126914] | 85.5956
46 | Cc1ccc(CCn2cc(C)nc2C)cn1 [CBK021231] | 149.104
47 | Cc1cc(C)cc(S(=O)(=O)c2ccc3ccnc(N4CCCNCC4)c3c2)c1 [CBK036413C] | 119.6
48 | O=C1/C(=C/c2ccc3c(c2)OCO3)SC(=S)N1CCCC(=O)N1CCCc2ccccc21 [CBK264676] | 100
49 | O=C(Cn1cnc2sc(-c3ccccc3)cc2c1=O)c1ccc2c(c1)OCO2 [CBK297102] | 144.164
50 | NC(=O)CS(=O)(=O)c1ccc(Cl)cc1 [CBK026373] | 148.896
